This is an account of results in PubChem BioAssay AID445 (National Center for Advancing Translational Sciences (NCATS), 2006).

Some of the results follow. The main result of the screen is listed elsewhere. These columns were measured beside it and carry no call. Compounds called inactive in the main read-out are mostly missing here. Potencies come from curve fits of mixed quality, noted in brackets.

This assay is described as follows: IkB Signaling. The following applies: ABC-DLBCL IkBa-CBG/CBR dual luciferase ratio (green luciferase fused to IkBa over red control in OCI-Ly3 lymphoma cells), 4 h; measured here: control luc red channel unless noted. The essentials: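 Luminescence ratio of IκBα-fused green versus native red beetle luciferase in OCI-Ly3 cells, 4 h post-doxycycline with compound; red signal alone, scaled from basal (0%) to zero light (-100%), flagged nonspecific or cytotoxic effects.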
Take `CCC1CN(C(=O)N2CCC(C(=O)N(C)Cc3ccccc3)CC2)c2ccccc2O1` (stereo not given): the AC50 (in general, the concentration giving half of the maximal activity seen) is 15.8 µM [falling, single point].

Regarding `Cc1ccc2nc(CN3CCN(C(=O)Nc4cccc(C)c4C)CC3)oc2c1`, the AC50 is 31.6 µM [falling, single point].

Take `COC(=O)c1scc(-c2ccc(C)cc2)c1S(=O)(=O)Nc1c(C)cc(C)cc1C`: the AC50 was 10 µM [falling, partial curve].

Turning to `COc1ccc(NC(=O)CN2C(=O)CC(c3ccco3)Sc3ccccc32)cc1OC` (stereo not given), the concentration at half-maximal activity (AC50) is 10 µM [falling, partial curve].

`Cc1ccc(-n2ncc(C(=O)NCCCN3CCc4ccccc4C3)c2C2CCN(C(=O)OC(C)(C)C)CC2)cc1C`: the AC50 was 15.8 µM [falling, partial curve].

For `CC(CNC(=O)CN1C(=O)COc2ccc(S(=O)(=O)N3CCCCC3)cc21)c1ccccc1` (stereo not given), the AC50 was 39.8 µM [falling, single point].

Regarding `O=C(Nc1ccc(Cl)cc1)C1CCN(S(=O)(=O)c2ccc(Br)s2)CC1`, the AC50 is 20 µM [falling, partial curve].

Consider `Cc1ccccc1C(=O)Nc1ccc(C(=O)OCc2cc(=O)n3nc(C4CC4)sc3n2)cc1`, for which the AC50 is 10 µM [falling, partial curve].

For `CC1(C)Cc2cccc(OCC(=O)N3CCN(S(=O)(=O)c4ccc(F)cc4)CC3)c2O1`, the AC50 is 39.8 µM [falling, single point].

For `CC1CN(C(=O)Nc2ccc(C(=O)NCCc3ccccc3Cl)cc2)c2ccccc2S1` (stereo not given), the AC50 was 10 µM [falling, partial curve].

For the compound `CCOc1ccc(NC(=O)CC2C(=O)N(c3cccc(C)c3)C(=O)N2Cc2ccco2)cc1` (stereo not given), the AC50 was 15.8 µM [falling, partial curve].

Regarding `Cn1cccc1C(=O)Nc1nccs1`, the AC50 was 12.6 µM [falling, partial curve].

Turning to `CCOC(=O)C1CCN(C(=O)c2cc3ccc4ccc(C)[nH]c4c3n2)CC1`, the AC50 is 39.8 µM [falling, single point].

Take `c1ccc(Cn2c(CSc3nnnn3-c3ccccc3)nc3ccccc32)cc1`: the AC50 is 12.6 µM [falling, partial curve].

Consider `O=C(Cc1ccc(Cl)cc1)NCC(c1cccs1)S(=O)(=O)c1ccc(Cl)cc1` (stereo not given), for which the AC50 is 15.8 µM [falling, partial curve].

Regarding `O=C(CSc1nnc(-c2ccccc2F)o1)N1CCc2ccccc21`, the AC50 is 39.8 µM [falling, single point].

`Cc1cccc(NC(=O)c2c(NC(=O)c3ccco3)sc3c2CCC(C(C)(C)C)C3)c1` (stereo not given): the AC50 was 15.8 µM [falling, partial curve, poor fit].

In the case of `CCCCCCc1nc2c(=O)[nH]c3ccccc3c2o1`, the AC50 is 0.0126 µM [rising, full curve, poor fit].

Regarding `Fc1ccccc1N1CCN(c2c3c(nc4nncn24)CCC3)CC1`, the AC50 was 25.1 µM [falling, partial curve, poor fit].

`Cc1ccc(OCCCC(=O)Nc2sc3c(c2C(N)=O)CCCC3)cc1`: the AC50 is 15.8 µM [falling, partial curve].

On to `CCCCN(C)C(=O)Cn1ncc2c([nH]c3ccc(C)cc32)c1=O`, for which the AC50 was 12.6 µM [falling, partial curve].

As for `Cc1ccc(C)c(Cn2c(=O)n(CCCC(=O)NCc3ccc4c(c3)OCO4)c(=O)c3sccc32)c1`, the AC50 was 10 µM [falling, partial curve].

For `CCCSc1ncc(Cl)c(C(=O)N2CCN(c3ccc(OC)cc3)CC2)n1`, the AC50 is 15.8 µM [falling, single point].

With `Oc1ccc(-c2nc(-c3ccc(O)c(O)c3)cs2)cc1`, the AC50 was 25.1 µM [falling, partial curve].

With `COc1ccccc1N1CCN(C(=O)CSc2nc(-c3ccco3)cc(C(F)(F)F)n2)CC1`, the AC50 is 20 µM [falling, partial curve].

As to `CC(C)Oc1ccc(C(=O)N2CCCCC2CCN2CCCCC2)cc1` (stereo not given), the AC50 was 3.16 µM [rising, single point].

In the case of `O=C(NCc1ccc(Cl)cc1Cl)c1cccc(N2CCCS2(=O)=O)c1`, the AC50 was 31.6 µM [falling, partial curve].

On to `CCCN(CCC)S(=O)(=O)c1cccc(C(=O)Nc2ccc3c(c2)OCO3)c1`, for which the AC50 was 31.6 µM [falling, partial curve].

With `N#CC1=C(N)N2C(=C(C#N)C13CCN(Cc1ccccc1)CC3)Nc1ccccc12`, the AC50 was 12.6 µM [falling, partial curve].

In the case of `COc1cc2c(cc1NC(=O)C(C)Oc1ccccc1)oc1ccccc12` (stereo not given), the AC50 is 12.6 µM [falling, partial curve].

On to `Cc1cc(C)c2c(N)c(C(=O)Nc3ccccc3C(F)(F)F)sc2n1`, for which the AC50 was 15.8 µM [falling, partial curve].

As to `CCCCCCC1CCC(C(=O)NC(C(=O)O)C(C)C)CC1` (stereo not given), the AC50 is 0.2 µM [falling, full curve].

On to `O=C(CSc1oc(-c2ccco2)nc1S(=O)(=O)c1ccc(Cl)cc1)Nc1ccc(F)cc1`, for which the AC50 is 7.94 µM [falling, full curve, poor fit].

Consider `COc1ccc2c(Sc3ccc(Cl)cc3)c(C(=O)N3CCCCC3)[nH]c2c1`, for which the AC50 was 15.8 µM [falling, partial curve].

As for `COc1ccc(N2CCN(CCCNC(=O)c3ccc4nc(N5CCCCC5)sc4c3)CC2)cc1`, the AC50 is 15.8 µM [falling, single point].

Take `CC1(C)CC(N2CCN(c3ccccc3)CC2)=CC(=[N+]2CCCC2)C1`: the AC50 is 15.8 µM [falling, partial curve].

As for `Cc1ccc(CNC(=O)c2ccc(CS(=O)(=O)c3ccccc3C)o2)cc1`, the AC50 is 25.1 µM [falling, single point].

For `CCOCCN1CCN(c2c3c(nc4cc(-c5ccc(F)cc5)nn24)CCC3)CC1`, the half-maximal activity concentration (AC50) was 12.6 µM [falling, partial curve].

As to `COc1ccccc1NC(=O)Cn1c(=O)n(-c2ccc(C)cc2)c(=O)c2c1cnn2C`, the AC50 is 25.1 µM [falling, partial curve, poor fit].

`CCOc1ccc(NC(=O)c2oc3ccccc3c2NC(=O)c2cc3ccccc3o2)cc1`: the AC50 is 2 µM [falling, partial curve].
